In PubChem BioAssay AID330 (DTP/NCI, 2004):
The list shows only some results of the screen, not a fair sample: it gathers tests that were run many times, whatever their T/C, doses with no T/C, and many T/C values between a quarter and a half above the control. Other doses and runs of a compound stand elsewhere. T/C is the treated group as % of the vehicle group. Some entries give survivors of the animals treated and no T/C: the source files T/C as zero there, which appears to mark a toxic dose or a test without result, not a measured value. Some survivor counts are full or nearly so, which does not show that the dose was tolerated: the source hardly ever lists a survival T/C far under the control, and the zero likely stands for such cases as well. Counts of survivors are from the toxicity check (mostly the fifth day) where no day follows; animals may have died later. Schedule codes are those of the source, read here as Q, the interval in days (D) or hours (H), X, the number of doses. Some entries were tested several times; the values are given in rising order. Marks such as (2×) count equal records among those shown. Where survival is the endpoint, the PubChem record calls one and a half times the control and up active, and a quarter to a half above the control has no call in these data; cut-offs in other NCI protocols can differ.

Tested on: P388 leukemia ip, CD2F1 mice, survival T/C
Assay: NCI In Vivo Anticancer Drug Screen. Data for tumor model P388 Leukemia (intraperitoneal) in CD2F1 (CDF1) mice
Settings: T/C endpoint: median survival time, higher T/C = longer survival
[1] = dose: 12.5 mg/kg/injection, schedule: Q01DX009 (ip), vehicle: saline with Tween-80
[2] = dose: 200.0 mg/kg/injection, schedule: Q01DX005 (ip), vehicle: saline with Tween-80
[3] = dose: 200.0 mg/kg/injection, schedule: Q01DX005 (ip), vehicle: saline
[4] = dose: 50.0 mg/kg/injection, schedule: Q01DX005 (ip), vehicle: Klucel (hydroxypropylcellulose) (HPC)
[5] = dose: 200.0 mg/kg/injection, schedule: Q01DX005 (ip), vehicle: Klucel (hydroxypropylcellulose) (HPC)

COc1cc2cc(c1Cl)N(C)C(=O)CC(OC(=O)C(C)N(C)C(=O)C(C)C)C1(C)OC1C(C)C1CC(O)(NC(=O)O1)C(OC)/C=C/C=C(C)C2O (stereo unspecified)
T/C (dose: 4.0 micrograms/kg/injection, schedule: Q01DX009 (ip), vehicle: distilled water + alcohol): 126 % of control
T/C (dose: 8.0 micrograms/kg/injection, schedule: Q01DX009 (ip), vehicle: distilled water + alcohol): 134 % of control
T/C (dose: 16.0 micrograms/kg/injection, schedule: Q01DX009 (ip), vehicle: distilled water + alcohol): 144 % of control

COc1ccc(C#CC2(O)c3ccccc3C(O)(C#Cc3ccc(OC)cc3)c3ccccc32)cc1 (stereo unspecified)
survivor count (dose: 200.0 mg/kg/injection, schedule: Q01DX009 (ip), vehicle: saline with Tween-80): 6 of 6

Clc1cc(CBr)c(CBr)cc1Cl
survivor count [1]: 4 of 6
survivor count (dose: 50.0 mg/kg/injection, schedule: Q04DX003 (ip), vehicle: saline with Tween-80): 5 of 6

C=CCC(CCC)(C(=O)Nc1ccc2nc(C)cc(N)c2c1)C(=O)Nc1ccc2nc(C)cc(N)c2c1
survivor count [2]: 0 of 5

NNC(=O)c1cccc2ccccc12
survivor count (dose: 50.0 mg/kg/injection, schedule: Q01DX005 (ip), vehicle: saline with Tween-80): 0 of 5
survivor count (dose: 100.0 mg/kg/injection, schedule: Q01DX005 (ip), vehicle: saline with Tween-80): 0 of 5
survivor count [2]: 0 of 5

CN(c1ccccc1)c1cc2c(cc1[N+](=O)[O-])no[n+]2[O-]
survivor count (dose: 15.0 mg/kg/injection, schedule: Q01DX009 (ip), vehicle: saline): 6 of 6
survivor count (dose: 30.0 mg/kg/injection, schedule: Q01DX009 (ip), vehicle: saline): 5 of 6

CCCCCCCCCCCCCCN1CCSCC1
survivor count (dose: 200.0 mg/kg/injection, schedule: Q01DX009 (ip), vehicle: saline): 0 of 6

O=C1CCC2CN3CCc4c([nH]c5ccccc45)C3CC2C1 (stereo unspecified)
survivor count (dose: 240.0 mg/kg/injection, schedule: Q01DX005 (ip), vehicle: saline with Tween-80): 4 of 6

N#CC(C#N)=CC(C#N)C#N
survivor count (dose: 100.0 mg/kg/injection, schedule: Q01DX005 (ip), vehicle: saline): 0 of 5
survivor count [3]: 0 of 5

CCN(CC)CCOc1ccc(/C=C(\C)C(C)=O)cc1
survivor count [3]: 0 of 5

CN(C)CCOc1cccc(NC2=C(Cl)C(=O)C(Nc3cccc(OCCN(C)C)c3)=C(Cl)C2=O)c1
survivor count (dose: 12.5 mg/kg/injection, schedule: Q01DX005 (ip), vehicle: Klucel (hydroxypropylcellulose) (HPC)): 3 of 6 and 4 of 6 (2×)
survivor count (dose: 25.0 mg/kg/injection, schedule: Q01DX005 (ip), vehicle: Klucel (hydroxypropylcellulose) (HPC)): 1 of 6
survivor count [4]: 0 of 5
survivor count (dose: 100.0 mg/kg/injection, schedule: Q01DX005 (ip), vehicle: Klucel (hydroxypropylcellulose) (HPC)): 0 of 5
survivor count [5]: 0 of 5

CC1=NN(C(C)(C)C)[Si](C)(C)C1
survivor count [5]: 1 of 6

COc1ccc2c(c1OC)C(=O)O[C@@H]2[C@H]1c2c(cc3c(c2OC)OCO3)CCN1C
survivor count (dose: 31.3 mg/kg/injection, schedule: Q01DX010 (ip), vehicle: saline): 6 of 6
survivor count (dose: 250.0 mg/kg/injection, schedule: Q01DX010 (ip), vehicle: saline): 4 of 6

CN(/C(=N/C(=S)NCc1ccccc1)SCc1ccccc1)c1ccccc1
survivor count [2]: 6 of 6

CC[C@@H]1O[C@@H]([C@@H]2CC[C@](O)([C@]3(C)CC[C@@H]([C@@H](C)[C@@]4(O)CC[C@H](C)[C@@H](C[C@@]5(O)O[C@@H]([C@@H](C)[C@H](O)C[C@H]6CC[C@H](C)[C@@H]([C@@H](C)C(=O)O)O6)CC[C@@H]5C)O4)O3)O2)CC[C@@]1(C)O
survivor count (dose: 0.5 mg/kg/injection, schedule: Q01DX009 (ip), vehicle: saline with Tween-80): 5 of 6
survivor count (dose: 1.0 mg/kg/injection, schedule: Q01DX009 (ip), vehicle: saline with Tween-80): 0 of 6

CSC(=S)/C=C(\O)c1ccccc1
survivor count (dose: 400.0 mg/kg/injection, schedule: Q04DX003 (ip), vehicle: saline): 0 of 6

O=[N+]([O-])C(Br)(Br)S(=O)(=O)c1ccccc1
survivor count [2]: 3 of 6

O=C(CCN1CCCCC1)c1ccc(C(F)(F)F)cc1
survivor count [1]: 2 of 6
survivor count (dose: 25.0 mg/kg/injection, schedule: Q01DX009 (ip), vehicle: saline with Tween-80): 0 of 6
survivor count (dose: 50.0 mg/kg/injection, schedule: Q01DX009 (ip), vehicle: saline with Tween-80): 0 of 6
survivor count (dose: 100.0 mg/kg/injection, schedule: Q01DX009 (ip), vehicle: saline with Tween-80): 0 of 6

c1ccc2c(c1)C1CC3N=NC1C23 (stereo unspecified)
survivor count [5]: 3 of 5

CS(C)(O)NC(N)=O
T/C (dose: 50.0 mg/kg/injection, schedule: Q01DX005 (ip), vehicle: other): 130 % of control
T/C (dose: 200.0 mg/kg/injection, schedule: Q01DX005 (ip), vehicle: other): 128 % of control

Cc1nc2ccccc2c(=O)n1/N=C1/C(=O)Nc2ccccc21
survivor count [4]: 6 of 6

CN(C)CCS(=O)(=O)O
survivor count (dose: 12.5 mg/kg/injection, schedule: Q04DX003 (ip), vehicle: saline): 6 of 6
survivor count (dose: 25.0 mg/kg/injection, schedule: Q04DX003 (ip), vehicle: saline): 6 of 6

OCC1OC(N(O)c2ccc(Oc3c(Cl)cc(Cl)cc3Cl)cc2)C(O)C(O)C1O (stereo unspecified)
survivor count (dose: 240.0 mg/kg/injection, schedule: Q01DX005 (ip), vehicle: Klucel (hydroxypropylcellulose) (HPC)): 1 of 6
